According to article PMC8512631, “Structural Basis for PPARs Activation by The Dual PPARα/γ Agonist Sanguinarine: A Unique Mode of Ligand Recognition” (Molecules, 2021):
No constants are given. Whether binding was seen depends on the method and setting. A result given as binding can be weak or reduced; the word gives no strength.

Biological target: PPARγ ligand-binding domain (human)
Assay: AlphaScreen or HTRF; approximately 20–40 nM PPAR LBDs on nickel chelate acceptor beads, 20 nM biotinylated co-factor peptides on streptavidin donor beads; 50 mM MOPS, 50 mM NaF, 0.05 mM CHAPS, 0.1 mg/mL BSA, pH 7.4; in response to 1 μM sanguinarine; both purified

binding: binds
Binder: PDAASKHKQLSELLRGGSG (biotin on the N-terminus) [biotinylated SRC3-3 co-activator LXXLL motif peptide]
